Experimental data as given in article PMC6892545.

The chains behind the UniProt entries cited, without tags or fusion partners. Where a name states a change or a piece, a line headed by the entry shows the natural chain unless it says otherwise.
UniProt P40537: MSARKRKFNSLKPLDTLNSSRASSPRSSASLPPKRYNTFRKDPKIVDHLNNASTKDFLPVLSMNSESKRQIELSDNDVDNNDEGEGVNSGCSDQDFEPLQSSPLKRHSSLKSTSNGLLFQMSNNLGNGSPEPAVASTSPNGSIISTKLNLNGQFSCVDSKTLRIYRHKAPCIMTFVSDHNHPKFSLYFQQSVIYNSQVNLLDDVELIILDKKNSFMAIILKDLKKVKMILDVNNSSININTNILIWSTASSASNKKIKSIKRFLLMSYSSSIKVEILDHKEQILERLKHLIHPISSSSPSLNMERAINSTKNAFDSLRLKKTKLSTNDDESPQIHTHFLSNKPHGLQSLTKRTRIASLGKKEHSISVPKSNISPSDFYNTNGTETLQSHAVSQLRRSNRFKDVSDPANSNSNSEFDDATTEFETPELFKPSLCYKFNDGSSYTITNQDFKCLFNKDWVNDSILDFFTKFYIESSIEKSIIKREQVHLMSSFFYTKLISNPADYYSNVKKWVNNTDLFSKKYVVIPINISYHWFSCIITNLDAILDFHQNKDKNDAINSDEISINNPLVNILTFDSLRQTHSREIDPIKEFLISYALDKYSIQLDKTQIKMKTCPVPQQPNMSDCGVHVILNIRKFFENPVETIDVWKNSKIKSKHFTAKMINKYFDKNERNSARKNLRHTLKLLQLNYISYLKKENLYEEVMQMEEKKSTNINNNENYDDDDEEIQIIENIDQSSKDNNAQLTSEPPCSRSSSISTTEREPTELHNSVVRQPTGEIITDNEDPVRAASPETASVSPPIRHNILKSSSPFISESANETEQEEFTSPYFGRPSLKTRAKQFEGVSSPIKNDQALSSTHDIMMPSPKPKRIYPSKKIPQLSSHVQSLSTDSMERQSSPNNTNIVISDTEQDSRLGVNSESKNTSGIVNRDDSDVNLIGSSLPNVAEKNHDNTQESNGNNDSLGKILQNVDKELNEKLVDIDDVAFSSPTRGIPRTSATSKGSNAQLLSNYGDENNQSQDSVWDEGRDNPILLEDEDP
UniProt Q06675: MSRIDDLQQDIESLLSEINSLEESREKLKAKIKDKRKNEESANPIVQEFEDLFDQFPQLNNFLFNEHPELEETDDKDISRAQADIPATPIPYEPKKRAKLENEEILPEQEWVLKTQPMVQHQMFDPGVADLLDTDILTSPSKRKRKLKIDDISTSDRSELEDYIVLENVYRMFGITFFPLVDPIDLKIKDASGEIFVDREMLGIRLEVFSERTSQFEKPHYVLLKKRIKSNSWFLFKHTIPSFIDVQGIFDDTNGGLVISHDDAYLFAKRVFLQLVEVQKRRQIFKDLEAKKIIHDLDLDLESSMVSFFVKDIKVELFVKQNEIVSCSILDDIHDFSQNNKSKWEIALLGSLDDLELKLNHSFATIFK

Target: Ulp2^873-1034 CCR^3A mutant, on CNBr-activated resin (S. cerevisiae) (UniProt P40537)
Experiment: pull-down; Ulp2^873-1034 (wild type or CCR^3A) on CNBr-activated resin incubated with yeast whole cell extract (wild-type strain background; also cnn1Δ), 2 h at 4 °C, PBSN buffer; anti-Protein A Western blot; only the target purified

binding: no binding
Substance: Mcm21, endogenously tagged, in yeast cell extract (from UniProt Q06675 1-368)

No constants are given. Whether binding was seen depends on the method and setting. In cells and extracts the contact can be indirect.
